The exact form of at least one protein or probe is not confirmed. The comparison behind a weaker result is the experiment's own reference, which may not be listed here. Protein sequences can lack the tags named with them.

The series addresses T1, Mre11 (UniProt P49959).
T1 sequence (looked up, limits assumed): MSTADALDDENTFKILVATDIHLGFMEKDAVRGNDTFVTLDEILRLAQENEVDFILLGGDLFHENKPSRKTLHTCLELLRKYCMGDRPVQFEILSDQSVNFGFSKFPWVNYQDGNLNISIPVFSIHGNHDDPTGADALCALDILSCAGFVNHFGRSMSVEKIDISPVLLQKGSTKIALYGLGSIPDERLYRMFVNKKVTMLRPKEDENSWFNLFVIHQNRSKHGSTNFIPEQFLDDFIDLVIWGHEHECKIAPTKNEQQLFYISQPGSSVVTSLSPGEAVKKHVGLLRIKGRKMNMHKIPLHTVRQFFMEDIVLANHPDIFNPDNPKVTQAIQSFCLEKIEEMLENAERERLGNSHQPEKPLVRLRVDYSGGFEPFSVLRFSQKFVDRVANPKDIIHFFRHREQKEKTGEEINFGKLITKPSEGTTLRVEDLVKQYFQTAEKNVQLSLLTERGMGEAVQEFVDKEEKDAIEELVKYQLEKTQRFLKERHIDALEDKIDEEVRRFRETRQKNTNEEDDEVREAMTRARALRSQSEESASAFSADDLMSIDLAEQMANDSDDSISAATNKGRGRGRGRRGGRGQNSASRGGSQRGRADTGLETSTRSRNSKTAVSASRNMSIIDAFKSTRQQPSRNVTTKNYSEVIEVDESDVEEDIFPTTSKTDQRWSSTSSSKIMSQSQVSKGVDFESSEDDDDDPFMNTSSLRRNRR
In words: EMSA. The following applies: plus increasing WT Bcl2 (dose-dependent inhibition), 10 nM Mre11, 1 mM Mg acetate, EMSA: 25 mM MOPS pH 7.0, 60 mM KCl, 0.2% Tween, 2 mM DTT, 1 mM Mg(CH3COO)2, 37 C 15 min, 10 pM DNA, 5% native PAGE in TBE at 4 C, recombinant protein, protein details: Flag, label: 5'-32P on TP423. (In general: A gel shift assay detects complexes by their altered migration in electrophoresis.)

Turning to “CTGCAGGGTTTTTGTTCCAGTCTGTAGCACTGTGTAAGACAGGCCAGATC / CACAGTGCTACAGACTGGAACAAAAACCCTGCAGTACTCTACTCATCTC [TP423/TP424 3' overhanging duplex]”, the binding result is on record as “binds more weakly”.

(Values after PMC4333404, “Bcl2 inhibits recruitment of Mre11 complex to DNA double-strand breaks in response to high-linear energy transfer radiation”.)
